# Measured values taken from PubChem BioAssay (EPA / NIEHS).
# Chains of the proteins cited; added tags and fusions are not shown. Lines headed by an entry give the natural chain unless they say otherwise; changes in a name come on top.
# UniProt P08684, whole entry, looked up: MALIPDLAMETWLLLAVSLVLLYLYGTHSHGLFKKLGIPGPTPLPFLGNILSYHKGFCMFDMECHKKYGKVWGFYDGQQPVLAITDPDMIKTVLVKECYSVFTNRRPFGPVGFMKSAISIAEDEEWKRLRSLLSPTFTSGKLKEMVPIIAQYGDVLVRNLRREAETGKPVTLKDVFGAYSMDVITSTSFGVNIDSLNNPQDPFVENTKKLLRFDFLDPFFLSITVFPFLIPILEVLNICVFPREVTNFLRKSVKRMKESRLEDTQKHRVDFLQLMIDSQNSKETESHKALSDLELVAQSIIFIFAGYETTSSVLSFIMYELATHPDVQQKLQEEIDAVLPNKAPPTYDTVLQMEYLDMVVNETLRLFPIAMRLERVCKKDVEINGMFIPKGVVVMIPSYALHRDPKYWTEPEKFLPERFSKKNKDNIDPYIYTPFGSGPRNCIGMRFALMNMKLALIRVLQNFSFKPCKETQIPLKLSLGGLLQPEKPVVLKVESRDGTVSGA
# UniProt P10276, whole entry, looked up: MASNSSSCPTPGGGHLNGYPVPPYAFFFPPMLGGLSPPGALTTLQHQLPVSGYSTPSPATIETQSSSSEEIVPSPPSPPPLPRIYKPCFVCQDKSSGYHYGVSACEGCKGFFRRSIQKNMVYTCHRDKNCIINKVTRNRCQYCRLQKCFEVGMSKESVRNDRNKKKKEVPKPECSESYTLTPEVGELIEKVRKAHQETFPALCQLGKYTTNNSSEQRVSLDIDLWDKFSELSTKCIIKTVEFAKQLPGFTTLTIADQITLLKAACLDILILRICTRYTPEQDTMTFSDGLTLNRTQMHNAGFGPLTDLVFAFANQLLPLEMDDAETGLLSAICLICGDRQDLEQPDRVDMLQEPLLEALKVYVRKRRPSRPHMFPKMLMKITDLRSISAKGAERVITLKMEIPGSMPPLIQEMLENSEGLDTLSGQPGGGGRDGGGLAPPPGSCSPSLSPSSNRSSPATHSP
# UniProt P10827: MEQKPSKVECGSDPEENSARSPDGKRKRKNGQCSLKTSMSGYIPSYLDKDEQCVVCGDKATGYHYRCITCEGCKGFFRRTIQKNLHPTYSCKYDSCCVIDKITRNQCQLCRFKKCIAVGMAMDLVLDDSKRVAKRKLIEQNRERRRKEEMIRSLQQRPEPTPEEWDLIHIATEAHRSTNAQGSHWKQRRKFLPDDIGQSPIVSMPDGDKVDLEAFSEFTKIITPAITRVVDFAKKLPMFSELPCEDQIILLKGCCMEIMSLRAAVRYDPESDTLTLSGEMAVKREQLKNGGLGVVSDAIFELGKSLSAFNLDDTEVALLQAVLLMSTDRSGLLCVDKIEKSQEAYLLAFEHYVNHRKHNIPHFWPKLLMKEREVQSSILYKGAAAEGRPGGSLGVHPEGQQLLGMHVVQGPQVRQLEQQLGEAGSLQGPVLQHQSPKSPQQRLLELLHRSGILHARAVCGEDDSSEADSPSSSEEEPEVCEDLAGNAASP
# UniProt P04386, whole entry, looked up: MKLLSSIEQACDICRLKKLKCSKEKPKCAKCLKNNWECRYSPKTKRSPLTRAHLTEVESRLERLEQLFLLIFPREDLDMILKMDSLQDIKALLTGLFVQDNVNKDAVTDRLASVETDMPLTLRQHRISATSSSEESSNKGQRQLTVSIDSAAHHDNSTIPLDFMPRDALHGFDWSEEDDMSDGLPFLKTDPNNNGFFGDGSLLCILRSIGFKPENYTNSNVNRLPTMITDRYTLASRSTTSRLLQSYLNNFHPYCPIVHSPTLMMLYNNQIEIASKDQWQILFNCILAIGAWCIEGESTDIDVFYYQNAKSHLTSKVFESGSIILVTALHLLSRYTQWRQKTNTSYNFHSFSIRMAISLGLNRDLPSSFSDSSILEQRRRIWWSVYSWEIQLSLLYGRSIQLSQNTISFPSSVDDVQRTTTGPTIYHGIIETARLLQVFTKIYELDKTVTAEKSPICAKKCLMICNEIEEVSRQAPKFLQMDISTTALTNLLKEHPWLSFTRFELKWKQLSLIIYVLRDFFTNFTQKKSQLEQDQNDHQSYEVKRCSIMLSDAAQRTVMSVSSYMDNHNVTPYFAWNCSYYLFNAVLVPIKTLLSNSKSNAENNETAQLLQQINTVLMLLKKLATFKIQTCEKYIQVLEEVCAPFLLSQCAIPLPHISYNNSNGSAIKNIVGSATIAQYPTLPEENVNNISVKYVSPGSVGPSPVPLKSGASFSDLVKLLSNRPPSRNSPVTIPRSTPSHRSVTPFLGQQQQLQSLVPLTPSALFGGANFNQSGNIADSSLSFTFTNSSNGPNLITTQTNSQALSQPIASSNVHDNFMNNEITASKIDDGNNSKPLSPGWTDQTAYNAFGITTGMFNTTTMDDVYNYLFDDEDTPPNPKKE
# UniProt P06212, whole entry, looked up: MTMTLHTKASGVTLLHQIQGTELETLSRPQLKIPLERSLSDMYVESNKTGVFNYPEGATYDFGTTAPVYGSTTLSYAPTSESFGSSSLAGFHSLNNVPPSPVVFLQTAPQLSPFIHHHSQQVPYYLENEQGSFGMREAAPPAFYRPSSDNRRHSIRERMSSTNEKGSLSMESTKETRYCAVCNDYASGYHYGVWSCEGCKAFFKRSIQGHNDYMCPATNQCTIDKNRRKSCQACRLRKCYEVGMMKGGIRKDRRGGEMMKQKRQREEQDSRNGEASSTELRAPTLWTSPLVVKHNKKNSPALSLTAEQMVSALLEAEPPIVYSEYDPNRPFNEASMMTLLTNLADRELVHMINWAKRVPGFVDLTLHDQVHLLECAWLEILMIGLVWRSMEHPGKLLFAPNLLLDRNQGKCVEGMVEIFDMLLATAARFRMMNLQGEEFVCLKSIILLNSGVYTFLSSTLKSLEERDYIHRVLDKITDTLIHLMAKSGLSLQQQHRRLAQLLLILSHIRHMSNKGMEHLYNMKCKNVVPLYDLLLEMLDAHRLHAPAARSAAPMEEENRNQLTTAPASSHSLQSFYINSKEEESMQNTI
# UniProt P10828: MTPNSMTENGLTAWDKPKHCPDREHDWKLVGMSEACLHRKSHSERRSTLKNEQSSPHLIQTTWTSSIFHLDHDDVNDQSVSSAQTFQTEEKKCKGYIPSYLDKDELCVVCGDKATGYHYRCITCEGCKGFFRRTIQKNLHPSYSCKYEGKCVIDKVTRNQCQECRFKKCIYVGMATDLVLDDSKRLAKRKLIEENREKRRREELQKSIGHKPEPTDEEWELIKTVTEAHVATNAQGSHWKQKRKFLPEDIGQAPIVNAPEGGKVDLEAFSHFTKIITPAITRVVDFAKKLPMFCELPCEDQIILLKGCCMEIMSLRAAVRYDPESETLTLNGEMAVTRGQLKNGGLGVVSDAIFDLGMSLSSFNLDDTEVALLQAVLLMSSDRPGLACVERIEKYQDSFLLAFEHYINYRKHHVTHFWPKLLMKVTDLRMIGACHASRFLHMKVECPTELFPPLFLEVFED
# UniProt Q9Y233: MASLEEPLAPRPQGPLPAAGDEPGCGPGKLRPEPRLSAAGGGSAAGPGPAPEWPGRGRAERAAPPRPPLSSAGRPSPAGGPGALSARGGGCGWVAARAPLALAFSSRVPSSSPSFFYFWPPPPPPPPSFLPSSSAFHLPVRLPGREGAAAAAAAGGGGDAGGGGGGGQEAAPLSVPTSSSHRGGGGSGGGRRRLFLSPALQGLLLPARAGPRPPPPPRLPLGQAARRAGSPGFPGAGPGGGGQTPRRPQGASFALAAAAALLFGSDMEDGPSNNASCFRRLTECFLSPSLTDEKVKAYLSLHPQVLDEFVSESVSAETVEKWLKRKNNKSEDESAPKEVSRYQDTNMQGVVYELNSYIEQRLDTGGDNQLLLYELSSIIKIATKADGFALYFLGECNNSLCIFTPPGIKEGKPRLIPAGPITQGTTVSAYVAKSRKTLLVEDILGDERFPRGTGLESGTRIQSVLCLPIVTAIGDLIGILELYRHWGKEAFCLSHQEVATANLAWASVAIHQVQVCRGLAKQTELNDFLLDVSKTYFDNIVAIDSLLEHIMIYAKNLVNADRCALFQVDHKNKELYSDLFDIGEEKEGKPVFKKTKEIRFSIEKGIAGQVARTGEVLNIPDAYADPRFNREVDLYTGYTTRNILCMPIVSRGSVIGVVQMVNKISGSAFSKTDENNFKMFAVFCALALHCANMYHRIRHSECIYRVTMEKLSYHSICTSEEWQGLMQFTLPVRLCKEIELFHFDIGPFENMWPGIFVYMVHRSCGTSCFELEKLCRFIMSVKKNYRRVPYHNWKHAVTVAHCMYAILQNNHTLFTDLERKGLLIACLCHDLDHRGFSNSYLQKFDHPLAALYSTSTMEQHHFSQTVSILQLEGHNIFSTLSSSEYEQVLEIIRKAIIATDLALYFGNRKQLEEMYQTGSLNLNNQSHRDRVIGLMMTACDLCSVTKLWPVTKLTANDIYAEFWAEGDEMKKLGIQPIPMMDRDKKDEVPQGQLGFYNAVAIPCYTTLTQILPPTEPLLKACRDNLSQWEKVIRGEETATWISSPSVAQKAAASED
# Where “and” joins values, the source holds several entries; their conditions need not be identical. Equal entries are not always repeated. Inconclusive means that the source gave no clear call. Such entries were picked first, then a sample of the others. For some assays here: Potencies of inconclusive entries are doubtful fits and often do not repeat. Some compounds were tested as several samples or in several runs, with calls that do not always agree. Calls of active or inactive are those of the source. The calls were made as follows: active = hit-call score of the fitted dose curve at least 0.9, where 1 is the maximum; inconclusive = response in the unintended direction; inactive = score below 0.9.
# Key:
# [1] = read-out: glucuronosyltransferase (UGT1A1), UGT1A1 (gene 54658); experiment: CLD_UGT1A1_24hr: CellzDirect (CLD) Gene Expression Assay for glucuronosyltransferase (UGT1A1) at 24 hours (AID 2283696)
# Procedure, shortened: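 Primary human hepatocytes from two donor preparations were dosed (0.2% DMSO vehicle) and harvested at 24 h; UGT1A1 mRNA induction was quantified by chemiluminescent qNPA, fitted as gain relative to DMSO.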
# [2] = biological target: Beta-2 adrenergic receptor (Homo sapiens) (UniProt P07550); experiment: NVS_GPCR_hAdrb2: NovaScreen (NVS) G Protein-Coupled Receptor Assay for human Adrenergic, Beta 2 Receptor (Adrb2) (AID 2283261)
# Procedure, shortened: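 Filter-based radioligand binding using receptor prepared from CHO cells, 1 h incubation, scintillation counting. Primary screen in duplicate at 25 uM, actives retested in concentration series; loss of binding relative to DMSO.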
# [3] = read-out: Cytochrome P450 3A4 (Homo sapiens) (UniProt P08684); experiment: CLD_CYP3A4_24hr: CellzDirect (CLD) Gene Expression Assay for xenobiotic metabolism (CYP3A4) at 24 hours (AID 2283689)
# Procedure, shortened: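 Primary human hepatocytes from two donors dosed daily with fresh compound for two days, 0.2% DMSO vehicle. CYP3A4 mRNA at 24 hr by qNPA chemiluminescence; gain-of-signal fit versus DMSO, cytotoxicity flagged by morphology.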
# [4] = ACEA_AR_antagonist_AUC_viability: ACEA Biosciences xCELLigence Real-Time Cell Analysis on Androgen Receptor Antagonism for Viability (AID 2283776);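 also: 22Rv1 human prostate cancer cells growing on impedance electrode plates; area under impedance growth curve at 80 h after dosing as viability; hits lower the growth signal relative to DMSO meaning cytotoxicity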
# Procedure, shortened: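 Real-time electrical impedance tracks 22Rv1 proliferation after continuous compound exposure (top 100 uM final, 1:4 steps, 8 concentrations). The 80 h area-under-curve serves as the cytotoxicity readout relative to DMSO.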
# [5] = biological target: Retinoic acid receptor alpha (Homo sapiens) (UniProt P10276); experiment: NVS_NR_hRAR_Antagonist: NovaScreen (NVS) Nuclear Receptor Binding Assay for human Retinoic Acid Alpha Receptor Antagonism (RAR) (AID 2283358)
# Procedure, shortened: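 TR-FRET, cell-free, antagonist format; 2 h incubation after dosing; DMSO = baseline; signal loss fitted; 25 uM duplicate primary, then conc. series.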
# [6] = biological target: human Thyroid Receptor Alpha (TRa), THRA (gene 7067) (UniProt P10827); experiment: NVS_NR_hTRa_Antagonist: NovaScreen (NVS) Nuclear Receptor Binding Assay for human Thyroid Receptor Alpha Antagonism (TRa) (AID 2283362);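 also: activity is loss of signal relative to DMSO baseline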
# Procedure, shortened: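 Cell-free binding assay on extracted receptor protein, read 1 h after chemical dosing by AlphaLISA chemiluminescence; loss of signal relative to DMSO baseline marks antagonism. Primary screen ran in duplicate at 25 uM, with concentration series for actives.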
# [7] = read-out: alkyl and aryl transferase (GSTA2), GSTA2 (gene 2939); experiment: CLD_GSTA2_6hr: CellzDirect (CLD) Gene Expression Assay for alkyl and aryl transferase (GSTA2) at 6 hours (AID 2283666)
# Procedure, shortened: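 Primary human hepatocytes from two donor preparations were dosed daily with fresh compound at multiple concentrations, 0.2% DMSO vehicle. GSTA2 mRNA was measured at 6 hours by qNPA chemiluminescence; induction fitted relative to DMSO, with cytotoxicity flagged morphologically.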
# [8] = test system: turtle Androgen Receptor (AR), gene 101947425; experiment: ATG_trAR_XSP1: Attagene TRANS-FACTORIAL Multi-Species (XSP1) HepG2 Assay for turtle Androgen Receptor (AR) (AID 2283786)
# Procedure, shortened: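 HepG2 cells transiently transfected with a turtle AR–GAL4 chimera and GAL4-UAS reporter, co-treated with 3 nM 6-alpha-fluorotestosterone for partial stimulation. Reporter mRNA is quantified at 24 h by RT-PCR and capillary electrophoresis, gain-of-signal versus DMSO.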
# [9] = biological target: GAL4 Transcription Factor (Internal Marker), GAL4 (gene 855828) (UniProt P04386); experiment: ATG_GAL4_XSP1: Attagene TRANS-FACTORIAL Multi-Species (XSP1) HepG2 Assay for GAL4 Transcription Factor (Internal Marker) (AID 2283789)
# Procedure, shortened: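 HepG2 cells transiently transfected with multiplexed GAL4-UAS reporter units were exposed for 24 h with 3 nM 6-alpha-fluorotestosterone present. Reporter mRNA was quantified by RT-PCR, FAM labelling, HpaI digestion and capillary electrophoresis; background-control readout, gain-of-signal versus DMSO.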
# [10] = biological target: human Thyroid hormone Receptor alpha (TRa), THRA (gene 7067) (UniProt P10827); experiment: ATG_hTRa_XSP1: Attagene TRANS-FACTORIAL Multi-Species (XSP1) HepG2 Assay for human Thyroid hormone Receptor alpha (TRa) (AID 2283805)
# Procedure, shortened: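 HepG2 cells transiently transfected with GAL4-UAS reporter units expressing chimeric NR-Gal4 proteins, dosed 24 hours with 3 nM 6-alpha-fluorotestosterone present. Reporter mRNA measured by RT-PCR and capillary electrophoresis; gain of signal fitted versus DMSO.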
# [11] = biological target: GAL4 Transcription Factor (Internal Marker), GAL4 (gene 855828) (UniProt P04386); experiment: ATG_GAL4_XSP2: Attagene TRANS-FACTORIAL Multi-Species (XSP2) HepG2 Assay for GAL4 Transcription Factor (Internal Marker) (AID 2283814);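 also: GAL4 reporter mRNA background control in MRTU transfected cells not a receptor target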
# Procedure, shortened: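 HepG2 cells transiently transfected with GAL4-UAS reporter units, stimulated with 3 nM 6-alpha-fluorotestosterone plus 1.5 nM norgestrel, dosed 24 h. Reporter mRNA by RT-PCR/capillary electrophoresis; gain-of-signal fit versus DMSO, background control.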
# [12] = biological target: chicken Estrogen Receptor (ERa), ESR1 (gene 396099) (UniProt P06212); experiment: ATG_chERa_XSP2: Attagene TRANS-FACTORIAL Multi-Species (XSP2) HepG2 Assay for chicken Estrogen Receptor (ERa) (AID 2283817);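 also: actives raise reporter signal above DMSO so AC50 reflects ER activation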
# Procedure, shortened: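 Transient MRTU transfection of HepG2 → 24 h chemical dosing → TriZol RNA, oligo(dT) RT → PCR, 6-FAM primer extension, HpaI digest → CE quantitation of chicken ERa-Gal4-driven reporter mRNA. Positive direction vs DMSO.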
# [13] = ATG_M_32_XSP2: Attagene TRANS-FACTORIAL Multi-Species (XSP2) HepG2 Assay for M19 Transcription Factor (Internal Marker) (AID 2283826)
# Procedure, shortened: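 HepG2 cells transiently transfected with GAL4-UAS reporter transcription units, dosed with compound for 24 h in presence of 3 nM 6-alpha-fluorotestosterone and 1.5 nM norgestrel; reporter mRNA quantified by RT-PCR, FAM labelling, HpaI digestion and capillary electrophoresis.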
# [14] = test system: zebrafish Peroxisome Proliferator-activated Receptor gamma (PPARg), gene 557037; experiment: ATG_zfPPARg_XSP2: Attagene TRANS-FACTORIAL Multi-Species (XSP2) HepG2 Assay for zebrafish Peroxisome Proliferator-activated Receptor gamma (PPARg) (AID 2283833);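 also: actives increase reporter signal over DMSO so AC50 reflects activation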
# Procedure, shortened: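 HepG2 cells transiently transfected with GAL4-UAS reporter units expressing a zebrafish PPARg–GAL4 chimera; compound exposure 24 h. Reporter mRNA quantified by RT-PCR with fluorescent labelling and capillary electrophoresis; gain of signal fitted relative to DMSO baseline.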
# [15] = biological target: human Thyroid hormone Receptor beta (TRb), THRB (gene 7068) (UniProt P10828); experiment: ATG_hTRb_XSP2: Attagene TRANS-FACTORIAL Multi-Species (XSP2) HepG2 Assay for human Thyroid hormone Receptor beta (TRb) (AID 2283840);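 also: actives raise reporter mRNA so potency reflects agonist-like gain of signal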
# Procedure, shortened: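 HepG2 cells were transiently transfected with GAL4-UAS multiplexed reporter units expressing chimeric NR-Gal4 proteins, dosed 24 h; reporter mRNA was quantified by RT-PCR, fluorescent labeling, HpaI digestion and capillary electrophoresis, fitted for gain of signal versus DMSO.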
# [16] = CCTE_Shafer_MEA_dev_active_electrodes_number: CCTE's Neural Network Formation Assay for Number of Active Electrodes, Shafer Lab (AID 2284040);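 as to AC50: potency for loss of active electrodes versus DMSO so lower counts are hits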
# Procedure, shortened: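 Primary rat cortical neurons on 16-electrode MEA wells, exposed from day 0 through day 12 with compound renewed at DIV 5 and 9 feeds. Active electrodes (mean firing ≥5 spikes/min) counted at DIV 5, 7, 9, 12; trapezoidal AUC across days, loss-of-signal versus DMSO.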
# [17] = CCTE_Mundy_HCI_hNP1_CellTiter: CCTE's Cell Titer-Glo 2 Assay in human neuroprogenitor cells for Viability, Mundy Lab (AID 2284241);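 also: a hit is a drop in ATP luminescence versus DMSO meaning reduced viability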
# Procedure, shortened: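 Human neural progenitor cells (hNP1, WA09-derived) were plated on poly-L-ornithine/laminin and grown 40 to 44 hours at 37 °C, 5% CO2 before chemical addition. Twenty-four hours later, ATP was measured by CellTiter-Glo luminescence; loss of signal versus DMSO indicates reduced viability.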
# [18] = biological target: human Phosphodiesterase 10 (PDE10), PDE10A (gene 10846) (UniProt Q9Y233); experiment: NVS_ENZ_hPDE10: NovaScreen (NVS) Enzymatic Assay for human Phosphodiesterase 10 (PDE10) (AID 2283195)
# Procedure, shortened: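 PDE10A, cell-free; 1 h incubation; fluorescence intensity + electrophoretic mobility shift separating substrate/product; DMSO = baseline; 25 uM duplicate primary, CRC up to 50 uM.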
compound,measurement,setting,value
CCC(C)n1c(=O)[nH]c(C)c(Br)c1=O (centres undefined),AC50,[1],inconclusive: 35.6 µM
CC1COC(Cn2cncn2)(c2ccc(Oc3ccc(Cl)cc3)cc2Cl)O1 (centres undefined),AC50,[2],inconclusive: 0.225 µM
same,AC50,[3],active: 1.9 µM
COC(=O)NS(=O)(=O)c1ccc(N)cc1,outcome,[2],inactive
same,outcome,[3],inactive
Cc1cccc(C)c1N,AC50,[4],inconclusive: 0.0166 µM
CCCCC(CC)COC(=O)c1ccccc1C(=O)OCC(CC)CCCC (centres undefined),AC50,[5],inconclusive: 4.96 µM
same,outcome,[6],inactive
same,AC50,[7],inconclusive: 2.11 µM
same,AC50,[8],inconclusive: 182 µM
same,AC50,[9],inconclusive: 24.9 µM
same,AC50,[10],active: 46.3 µM
same,AC50,[11],inconclusive: 100 µM
same,AC50,[12],inconclusive: 180 µM
same,AC50,[13],inconclusive: 100 µM
same,AC50,[14],inconclusive: 100 µM
same,outcome,[15],inactive
same,AC50,[16],active: 15 µM and active: 7.34 µM
same,outcome,[16],inactive
same,AC50,[17],active: 9.22 µM
CN(CCCC(=O)c1cccnc1)N=O,outcome,[18],inactive
N#Cc1c[nH]cc1-c1cccc2c1OC(F)(F)O2,AC50,[6],inconclusive: 1.05 µM
same,AC50,[7],inconclusive: 2.28 µM
same,AC50,[11],inconclusive: 24.9 µM
same,AC50,[12],active: 1.68 µM and active: 2.04 µM
same,AC50,[13],inconclusive: 100 µM
same,AC50,[14],inconclusive: 100 µM
same,outcome,[14],inactive
same,outcome,[15],inactive

# Part of the list above, with tabs:
compound	measurement	setting	value
CC1COC(Cn2cncn2)(c2ccc(Oc3ccc(Cl)cc3)cc2Cl)O1 (centres undefined)	AC50	[2]	inconclusive: 0.225 µM
CCCCC(CC)COC(=O)c1ccccc1C(=O)OCC(CC)CCCC (centres undefined)	AC50	[17]	active: 9.22 µM
